Measurements reported in article PMC9688414.
These are yes or no findings as the source states them, for the method shown. In cells and extracts the contact can be indirect.

Amino acid sequences for entries named in this document (tags omitted).
UniProt Q15652: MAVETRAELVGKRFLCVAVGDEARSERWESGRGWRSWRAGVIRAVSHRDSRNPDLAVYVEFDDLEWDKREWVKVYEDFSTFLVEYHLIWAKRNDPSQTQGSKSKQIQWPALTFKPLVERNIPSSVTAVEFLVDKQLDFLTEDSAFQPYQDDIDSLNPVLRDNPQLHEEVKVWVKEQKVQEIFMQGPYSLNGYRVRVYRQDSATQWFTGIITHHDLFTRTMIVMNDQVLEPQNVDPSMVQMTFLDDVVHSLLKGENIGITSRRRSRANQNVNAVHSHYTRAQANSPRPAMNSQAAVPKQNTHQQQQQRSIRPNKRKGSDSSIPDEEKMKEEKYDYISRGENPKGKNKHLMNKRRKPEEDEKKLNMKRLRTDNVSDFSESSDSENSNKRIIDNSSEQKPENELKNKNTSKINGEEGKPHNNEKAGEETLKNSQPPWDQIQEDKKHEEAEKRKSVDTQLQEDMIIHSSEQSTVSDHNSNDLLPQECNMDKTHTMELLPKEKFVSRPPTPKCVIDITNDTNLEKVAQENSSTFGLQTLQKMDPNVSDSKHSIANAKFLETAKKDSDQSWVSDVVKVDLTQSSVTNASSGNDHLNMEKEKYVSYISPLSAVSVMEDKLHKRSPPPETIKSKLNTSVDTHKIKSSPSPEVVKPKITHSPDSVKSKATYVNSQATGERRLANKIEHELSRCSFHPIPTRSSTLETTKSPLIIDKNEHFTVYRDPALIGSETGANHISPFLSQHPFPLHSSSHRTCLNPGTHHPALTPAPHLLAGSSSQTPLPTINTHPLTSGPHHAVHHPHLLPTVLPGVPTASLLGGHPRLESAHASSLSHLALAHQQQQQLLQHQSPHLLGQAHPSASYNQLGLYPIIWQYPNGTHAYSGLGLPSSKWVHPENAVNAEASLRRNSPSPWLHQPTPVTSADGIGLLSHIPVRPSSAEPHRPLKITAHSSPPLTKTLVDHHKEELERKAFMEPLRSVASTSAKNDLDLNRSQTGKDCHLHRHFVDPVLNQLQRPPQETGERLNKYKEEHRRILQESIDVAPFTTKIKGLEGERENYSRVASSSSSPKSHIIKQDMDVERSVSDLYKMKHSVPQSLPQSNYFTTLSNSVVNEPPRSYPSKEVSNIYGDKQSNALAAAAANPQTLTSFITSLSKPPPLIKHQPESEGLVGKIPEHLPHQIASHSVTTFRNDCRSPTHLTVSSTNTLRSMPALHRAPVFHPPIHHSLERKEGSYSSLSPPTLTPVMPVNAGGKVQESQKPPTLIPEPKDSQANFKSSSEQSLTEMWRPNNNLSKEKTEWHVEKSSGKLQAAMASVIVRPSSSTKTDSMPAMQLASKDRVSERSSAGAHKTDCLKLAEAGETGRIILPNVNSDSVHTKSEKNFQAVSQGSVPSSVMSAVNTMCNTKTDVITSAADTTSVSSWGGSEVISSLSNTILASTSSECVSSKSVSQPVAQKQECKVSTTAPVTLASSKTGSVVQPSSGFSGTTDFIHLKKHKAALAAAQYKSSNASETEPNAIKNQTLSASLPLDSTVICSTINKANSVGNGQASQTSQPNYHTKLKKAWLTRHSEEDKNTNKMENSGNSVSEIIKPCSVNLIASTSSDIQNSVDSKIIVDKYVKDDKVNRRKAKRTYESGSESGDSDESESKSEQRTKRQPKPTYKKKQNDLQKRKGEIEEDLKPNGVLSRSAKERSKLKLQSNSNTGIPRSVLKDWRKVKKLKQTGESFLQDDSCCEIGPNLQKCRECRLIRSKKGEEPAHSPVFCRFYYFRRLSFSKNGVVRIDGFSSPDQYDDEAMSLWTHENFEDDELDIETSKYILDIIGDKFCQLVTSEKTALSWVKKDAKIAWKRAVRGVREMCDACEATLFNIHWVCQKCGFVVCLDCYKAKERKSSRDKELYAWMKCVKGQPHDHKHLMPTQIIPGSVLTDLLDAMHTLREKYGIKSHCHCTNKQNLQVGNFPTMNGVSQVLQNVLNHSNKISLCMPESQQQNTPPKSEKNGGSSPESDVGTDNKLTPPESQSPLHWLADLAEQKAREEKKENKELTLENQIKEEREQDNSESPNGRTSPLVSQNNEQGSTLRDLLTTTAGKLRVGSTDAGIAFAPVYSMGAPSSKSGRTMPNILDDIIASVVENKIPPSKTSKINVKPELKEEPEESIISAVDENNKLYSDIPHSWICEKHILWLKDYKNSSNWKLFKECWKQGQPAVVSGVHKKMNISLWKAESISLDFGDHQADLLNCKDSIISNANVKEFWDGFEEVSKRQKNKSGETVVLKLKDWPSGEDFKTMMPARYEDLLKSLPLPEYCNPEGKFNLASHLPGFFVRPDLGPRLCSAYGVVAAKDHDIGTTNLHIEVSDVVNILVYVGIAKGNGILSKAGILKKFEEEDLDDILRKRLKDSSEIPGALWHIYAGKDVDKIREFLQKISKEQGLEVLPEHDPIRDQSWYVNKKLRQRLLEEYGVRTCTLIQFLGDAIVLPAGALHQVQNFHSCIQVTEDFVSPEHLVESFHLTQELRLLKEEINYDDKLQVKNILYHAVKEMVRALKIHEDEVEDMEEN
UniProt P60953: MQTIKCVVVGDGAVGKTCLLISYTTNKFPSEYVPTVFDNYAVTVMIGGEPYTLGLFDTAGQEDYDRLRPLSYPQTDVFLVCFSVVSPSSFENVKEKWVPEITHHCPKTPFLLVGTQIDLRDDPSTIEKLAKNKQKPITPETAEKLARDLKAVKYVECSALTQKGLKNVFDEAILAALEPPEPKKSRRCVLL
UniProt P23528: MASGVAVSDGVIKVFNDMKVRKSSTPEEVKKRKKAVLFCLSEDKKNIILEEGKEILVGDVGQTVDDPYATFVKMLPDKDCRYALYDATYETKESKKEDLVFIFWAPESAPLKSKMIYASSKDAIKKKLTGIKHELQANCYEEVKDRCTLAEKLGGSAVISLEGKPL
UniProt P35579: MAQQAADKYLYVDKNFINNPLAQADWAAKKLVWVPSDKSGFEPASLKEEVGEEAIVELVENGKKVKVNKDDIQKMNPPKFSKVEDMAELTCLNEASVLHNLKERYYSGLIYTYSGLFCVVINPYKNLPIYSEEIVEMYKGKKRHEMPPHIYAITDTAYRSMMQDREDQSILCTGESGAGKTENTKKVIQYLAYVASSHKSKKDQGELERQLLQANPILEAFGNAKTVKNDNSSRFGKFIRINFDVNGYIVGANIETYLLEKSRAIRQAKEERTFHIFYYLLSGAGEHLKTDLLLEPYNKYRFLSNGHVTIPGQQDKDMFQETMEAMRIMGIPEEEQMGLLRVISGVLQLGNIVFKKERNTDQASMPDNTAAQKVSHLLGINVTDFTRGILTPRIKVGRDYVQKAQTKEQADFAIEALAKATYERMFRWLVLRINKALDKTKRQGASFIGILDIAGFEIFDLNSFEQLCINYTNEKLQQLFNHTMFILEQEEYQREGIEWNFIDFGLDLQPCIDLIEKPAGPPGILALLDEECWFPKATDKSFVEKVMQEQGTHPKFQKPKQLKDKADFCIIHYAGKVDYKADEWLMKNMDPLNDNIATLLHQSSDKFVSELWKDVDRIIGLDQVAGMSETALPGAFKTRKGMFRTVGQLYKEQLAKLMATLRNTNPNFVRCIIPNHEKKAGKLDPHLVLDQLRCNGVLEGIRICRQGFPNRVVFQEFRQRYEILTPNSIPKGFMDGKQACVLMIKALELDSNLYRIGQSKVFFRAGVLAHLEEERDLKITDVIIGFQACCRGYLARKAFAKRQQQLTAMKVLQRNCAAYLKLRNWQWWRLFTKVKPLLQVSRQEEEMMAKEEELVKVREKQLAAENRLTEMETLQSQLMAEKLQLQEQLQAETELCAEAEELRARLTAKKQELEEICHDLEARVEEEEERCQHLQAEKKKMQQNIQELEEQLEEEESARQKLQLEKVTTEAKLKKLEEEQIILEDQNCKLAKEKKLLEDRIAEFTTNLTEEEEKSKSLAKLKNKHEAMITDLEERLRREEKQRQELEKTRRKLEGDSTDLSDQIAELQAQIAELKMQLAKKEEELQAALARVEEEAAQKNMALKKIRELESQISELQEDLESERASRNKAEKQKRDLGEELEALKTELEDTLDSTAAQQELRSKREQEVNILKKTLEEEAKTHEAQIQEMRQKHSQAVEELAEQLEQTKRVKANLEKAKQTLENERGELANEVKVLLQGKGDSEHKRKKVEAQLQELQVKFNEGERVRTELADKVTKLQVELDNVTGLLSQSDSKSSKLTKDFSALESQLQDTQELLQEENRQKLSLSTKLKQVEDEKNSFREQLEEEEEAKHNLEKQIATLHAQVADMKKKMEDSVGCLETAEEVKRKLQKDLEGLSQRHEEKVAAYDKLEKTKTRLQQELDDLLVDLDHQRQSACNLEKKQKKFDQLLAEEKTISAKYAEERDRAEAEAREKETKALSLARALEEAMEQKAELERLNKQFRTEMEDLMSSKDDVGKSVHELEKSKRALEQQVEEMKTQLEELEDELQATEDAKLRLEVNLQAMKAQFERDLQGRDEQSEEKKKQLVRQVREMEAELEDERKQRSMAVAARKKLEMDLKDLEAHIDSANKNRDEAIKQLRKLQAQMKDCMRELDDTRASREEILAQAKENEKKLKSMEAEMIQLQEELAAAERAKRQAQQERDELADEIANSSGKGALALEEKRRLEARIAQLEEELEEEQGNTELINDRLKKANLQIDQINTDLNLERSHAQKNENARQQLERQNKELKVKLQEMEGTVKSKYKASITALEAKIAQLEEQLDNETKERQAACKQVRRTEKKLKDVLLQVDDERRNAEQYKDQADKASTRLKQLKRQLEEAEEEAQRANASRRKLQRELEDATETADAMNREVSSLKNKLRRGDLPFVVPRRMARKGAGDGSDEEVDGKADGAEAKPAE

Molecular target: histone demethylase JMJD1C (human (endogenous in K562, MEG-01 and cord blood cells)) (UniProt Q15652)
Assay: co-IP; Supplementary Figure S2; cells not given; non-denaturing lysis buffer, protein A/G magnetic beads, western blotting

| binding | Substance |
| --- | --- |
| no binding | CDC42 (from UniProt P60953 1-191) |
| no binding | CFL1 (from UniProt P23528 1-166) |
| no binding | MYH9 (from UniProt P35579 1-1960) |
